According to paper PMC7271899, “Bayesian modeling reveals metabolite‐dependent ultrasensitivity in the cyanobacterial circadian clock” (Molecular Systems Biology, 2020):
No constants are given. Whether binding was seen depends on the method and setting.

Molecular target: N-terminal domain of KaiA (residues 1-135) (Synechococcus elongatus) (UniProt Q79PF6)
Experiment: SEC; Superdex 75 1660 prep grade column, step of the purification after Ni-NTA; both purified

binding: no binding
B1: N-terminal domain of KaiA (residues 1-135) (domain or fragment, UniProt Q79PF6 1-135)
chain: MLSQIAICIWVESTAILQDCQRALSADRYQLQVCESGEMLLEYAQTHRDQIDCLILVAANPSFRAVVQQLCFEGVVVPAIVVGDRDSEDPDEPAKEQLYHSAELHLGIHQLEQLPYQVDAALAEFLRLAPVETMA
